Data published in the supplement of paper PMC10849652.
This is one part of the list.

By UniProt entry, the sequences of proteins in these tests, tags left out. Where a name states a change or a piece, a line headed by the entry shows the natural chain unless it says otherwise.
UniProt Q6ZR08: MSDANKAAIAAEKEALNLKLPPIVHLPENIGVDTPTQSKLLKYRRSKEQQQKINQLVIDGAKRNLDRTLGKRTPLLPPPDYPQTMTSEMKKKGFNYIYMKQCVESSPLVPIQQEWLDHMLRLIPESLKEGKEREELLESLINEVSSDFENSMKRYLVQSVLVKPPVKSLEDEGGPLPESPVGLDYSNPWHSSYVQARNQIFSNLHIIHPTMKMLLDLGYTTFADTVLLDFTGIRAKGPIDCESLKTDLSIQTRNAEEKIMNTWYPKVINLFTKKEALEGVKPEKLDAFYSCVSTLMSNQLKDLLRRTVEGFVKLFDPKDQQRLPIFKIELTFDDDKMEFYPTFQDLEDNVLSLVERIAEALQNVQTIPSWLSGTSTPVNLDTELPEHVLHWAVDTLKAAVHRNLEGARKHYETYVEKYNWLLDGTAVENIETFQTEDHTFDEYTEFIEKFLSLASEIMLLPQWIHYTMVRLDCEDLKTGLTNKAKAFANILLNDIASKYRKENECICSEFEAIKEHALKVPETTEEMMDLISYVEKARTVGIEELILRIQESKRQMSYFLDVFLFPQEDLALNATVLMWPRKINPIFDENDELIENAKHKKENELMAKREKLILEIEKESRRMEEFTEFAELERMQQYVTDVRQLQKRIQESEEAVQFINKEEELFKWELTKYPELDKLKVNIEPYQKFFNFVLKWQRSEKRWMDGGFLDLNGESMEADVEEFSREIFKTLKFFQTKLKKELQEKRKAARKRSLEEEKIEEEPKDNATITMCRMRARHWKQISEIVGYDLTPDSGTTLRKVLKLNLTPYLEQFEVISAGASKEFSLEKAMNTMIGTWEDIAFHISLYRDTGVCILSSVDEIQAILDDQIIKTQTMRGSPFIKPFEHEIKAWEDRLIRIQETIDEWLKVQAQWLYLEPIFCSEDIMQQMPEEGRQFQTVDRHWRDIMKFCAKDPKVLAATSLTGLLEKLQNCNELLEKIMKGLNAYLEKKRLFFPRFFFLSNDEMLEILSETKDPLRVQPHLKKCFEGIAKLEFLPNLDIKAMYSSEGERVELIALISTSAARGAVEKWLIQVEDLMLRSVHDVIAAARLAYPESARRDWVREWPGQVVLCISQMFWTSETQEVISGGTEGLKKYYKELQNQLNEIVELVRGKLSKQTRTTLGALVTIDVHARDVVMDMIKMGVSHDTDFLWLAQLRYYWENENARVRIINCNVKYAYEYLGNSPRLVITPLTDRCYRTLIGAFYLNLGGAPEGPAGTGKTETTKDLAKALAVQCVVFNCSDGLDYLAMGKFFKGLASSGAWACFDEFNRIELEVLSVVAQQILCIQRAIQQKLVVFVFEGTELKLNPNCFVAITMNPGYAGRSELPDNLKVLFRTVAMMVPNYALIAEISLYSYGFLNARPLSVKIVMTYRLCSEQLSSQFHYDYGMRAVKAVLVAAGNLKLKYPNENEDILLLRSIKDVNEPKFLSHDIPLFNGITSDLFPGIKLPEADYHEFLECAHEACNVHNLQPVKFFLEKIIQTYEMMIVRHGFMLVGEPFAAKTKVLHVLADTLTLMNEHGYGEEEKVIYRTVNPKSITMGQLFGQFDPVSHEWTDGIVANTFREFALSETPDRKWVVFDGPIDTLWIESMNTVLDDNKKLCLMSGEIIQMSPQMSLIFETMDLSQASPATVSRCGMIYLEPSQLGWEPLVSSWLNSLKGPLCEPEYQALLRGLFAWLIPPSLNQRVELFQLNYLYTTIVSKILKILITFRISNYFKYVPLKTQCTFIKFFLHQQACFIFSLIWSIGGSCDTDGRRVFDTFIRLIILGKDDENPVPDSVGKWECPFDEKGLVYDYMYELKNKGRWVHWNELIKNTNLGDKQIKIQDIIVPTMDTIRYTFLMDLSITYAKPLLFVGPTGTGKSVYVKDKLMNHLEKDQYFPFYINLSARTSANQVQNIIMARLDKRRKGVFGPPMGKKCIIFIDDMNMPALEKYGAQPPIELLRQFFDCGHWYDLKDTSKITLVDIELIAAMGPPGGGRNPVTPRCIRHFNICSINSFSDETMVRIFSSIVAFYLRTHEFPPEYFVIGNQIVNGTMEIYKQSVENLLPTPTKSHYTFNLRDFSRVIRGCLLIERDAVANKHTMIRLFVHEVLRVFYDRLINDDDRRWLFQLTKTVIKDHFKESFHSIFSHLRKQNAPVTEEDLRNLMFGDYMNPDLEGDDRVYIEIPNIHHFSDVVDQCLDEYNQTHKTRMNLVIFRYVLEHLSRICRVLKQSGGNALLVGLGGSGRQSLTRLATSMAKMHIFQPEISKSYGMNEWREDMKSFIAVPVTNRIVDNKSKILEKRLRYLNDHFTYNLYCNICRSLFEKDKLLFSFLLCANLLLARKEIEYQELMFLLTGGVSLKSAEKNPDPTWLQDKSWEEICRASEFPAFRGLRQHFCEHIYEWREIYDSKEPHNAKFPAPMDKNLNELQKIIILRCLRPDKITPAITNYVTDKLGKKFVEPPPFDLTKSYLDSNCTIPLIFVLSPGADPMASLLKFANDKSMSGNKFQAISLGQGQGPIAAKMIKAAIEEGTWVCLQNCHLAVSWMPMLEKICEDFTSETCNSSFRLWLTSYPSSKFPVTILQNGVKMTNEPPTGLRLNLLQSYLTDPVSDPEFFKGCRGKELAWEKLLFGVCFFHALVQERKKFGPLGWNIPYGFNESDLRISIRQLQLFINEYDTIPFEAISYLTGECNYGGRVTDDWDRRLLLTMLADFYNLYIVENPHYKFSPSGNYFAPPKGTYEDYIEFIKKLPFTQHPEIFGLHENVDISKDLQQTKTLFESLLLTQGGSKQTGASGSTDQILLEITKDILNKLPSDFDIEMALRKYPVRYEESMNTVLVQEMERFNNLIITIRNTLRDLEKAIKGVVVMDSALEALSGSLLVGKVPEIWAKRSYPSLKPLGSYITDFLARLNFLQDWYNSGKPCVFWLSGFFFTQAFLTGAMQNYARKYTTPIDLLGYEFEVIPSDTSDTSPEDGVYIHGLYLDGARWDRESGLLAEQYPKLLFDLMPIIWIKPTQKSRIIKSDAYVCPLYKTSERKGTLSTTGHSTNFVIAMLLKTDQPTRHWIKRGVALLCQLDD
UniProt P26358: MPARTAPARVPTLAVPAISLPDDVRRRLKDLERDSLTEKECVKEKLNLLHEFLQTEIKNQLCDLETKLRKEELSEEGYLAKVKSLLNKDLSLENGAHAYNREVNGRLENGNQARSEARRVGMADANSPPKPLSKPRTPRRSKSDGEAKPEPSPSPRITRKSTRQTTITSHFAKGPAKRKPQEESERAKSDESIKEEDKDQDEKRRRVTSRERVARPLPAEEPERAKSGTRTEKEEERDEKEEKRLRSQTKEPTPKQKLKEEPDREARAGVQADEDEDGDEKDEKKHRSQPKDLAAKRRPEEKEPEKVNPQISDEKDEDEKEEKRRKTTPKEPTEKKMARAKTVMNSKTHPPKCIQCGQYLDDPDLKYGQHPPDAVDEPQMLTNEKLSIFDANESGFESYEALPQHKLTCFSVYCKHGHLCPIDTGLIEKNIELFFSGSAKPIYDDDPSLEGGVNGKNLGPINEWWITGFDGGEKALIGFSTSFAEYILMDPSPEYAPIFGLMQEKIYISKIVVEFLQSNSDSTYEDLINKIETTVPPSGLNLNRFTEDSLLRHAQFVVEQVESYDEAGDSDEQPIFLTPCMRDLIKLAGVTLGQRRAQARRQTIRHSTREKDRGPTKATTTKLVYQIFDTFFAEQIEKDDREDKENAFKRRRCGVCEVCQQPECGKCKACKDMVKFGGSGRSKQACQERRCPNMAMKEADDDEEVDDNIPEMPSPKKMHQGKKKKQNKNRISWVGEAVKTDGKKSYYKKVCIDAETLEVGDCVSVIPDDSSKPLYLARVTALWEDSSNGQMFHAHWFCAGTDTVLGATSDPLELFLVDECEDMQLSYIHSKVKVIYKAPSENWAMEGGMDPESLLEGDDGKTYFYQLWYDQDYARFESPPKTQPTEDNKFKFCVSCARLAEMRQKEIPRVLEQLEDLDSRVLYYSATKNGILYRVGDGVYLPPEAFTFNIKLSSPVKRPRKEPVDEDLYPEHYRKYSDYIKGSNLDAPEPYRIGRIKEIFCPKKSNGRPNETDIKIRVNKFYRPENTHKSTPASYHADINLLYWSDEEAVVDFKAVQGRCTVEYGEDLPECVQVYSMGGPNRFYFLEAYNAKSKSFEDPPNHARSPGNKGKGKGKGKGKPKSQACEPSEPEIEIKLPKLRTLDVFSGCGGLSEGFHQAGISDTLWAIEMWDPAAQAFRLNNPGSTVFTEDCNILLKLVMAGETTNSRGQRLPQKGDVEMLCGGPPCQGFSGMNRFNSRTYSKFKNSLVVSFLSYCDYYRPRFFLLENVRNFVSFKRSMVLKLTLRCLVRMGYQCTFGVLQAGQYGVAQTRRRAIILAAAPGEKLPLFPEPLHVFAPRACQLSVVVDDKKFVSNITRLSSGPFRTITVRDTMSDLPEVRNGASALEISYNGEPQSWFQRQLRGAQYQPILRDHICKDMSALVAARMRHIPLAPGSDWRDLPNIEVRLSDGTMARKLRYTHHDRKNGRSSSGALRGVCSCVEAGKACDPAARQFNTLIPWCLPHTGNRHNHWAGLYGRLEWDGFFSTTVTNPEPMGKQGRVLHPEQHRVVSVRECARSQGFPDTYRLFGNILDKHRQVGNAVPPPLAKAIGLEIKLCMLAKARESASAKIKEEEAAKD
UniProt Q96EY1: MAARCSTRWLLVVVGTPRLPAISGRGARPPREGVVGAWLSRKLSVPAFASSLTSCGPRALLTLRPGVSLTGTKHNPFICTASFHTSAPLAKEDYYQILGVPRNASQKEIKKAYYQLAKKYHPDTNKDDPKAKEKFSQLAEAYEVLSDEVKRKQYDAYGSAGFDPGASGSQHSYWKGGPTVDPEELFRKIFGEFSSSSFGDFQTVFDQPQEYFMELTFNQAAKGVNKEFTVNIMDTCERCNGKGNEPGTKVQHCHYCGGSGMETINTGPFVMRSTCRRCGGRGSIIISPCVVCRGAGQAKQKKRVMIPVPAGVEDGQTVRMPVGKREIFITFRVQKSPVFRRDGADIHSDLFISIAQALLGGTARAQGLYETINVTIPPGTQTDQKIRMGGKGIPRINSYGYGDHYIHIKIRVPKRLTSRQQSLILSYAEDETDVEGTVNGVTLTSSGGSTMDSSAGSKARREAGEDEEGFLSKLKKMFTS
UniProt Q9NXW2: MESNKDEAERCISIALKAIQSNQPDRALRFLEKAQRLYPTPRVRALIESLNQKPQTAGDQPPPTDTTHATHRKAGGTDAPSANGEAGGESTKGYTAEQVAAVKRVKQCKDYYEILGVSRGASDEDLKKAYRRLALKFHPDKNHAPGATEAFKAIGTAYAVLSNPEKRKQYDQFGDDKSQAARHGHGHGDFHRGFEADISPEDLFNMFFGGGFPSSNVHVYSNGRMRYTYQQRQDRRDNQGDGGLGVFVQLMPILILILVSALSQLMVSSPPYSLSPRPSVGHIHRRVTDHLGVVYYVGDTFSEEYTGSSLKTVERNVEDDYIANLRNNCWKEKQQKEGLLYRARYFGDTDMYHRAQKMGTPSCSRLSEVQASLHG
UniProt Q92796: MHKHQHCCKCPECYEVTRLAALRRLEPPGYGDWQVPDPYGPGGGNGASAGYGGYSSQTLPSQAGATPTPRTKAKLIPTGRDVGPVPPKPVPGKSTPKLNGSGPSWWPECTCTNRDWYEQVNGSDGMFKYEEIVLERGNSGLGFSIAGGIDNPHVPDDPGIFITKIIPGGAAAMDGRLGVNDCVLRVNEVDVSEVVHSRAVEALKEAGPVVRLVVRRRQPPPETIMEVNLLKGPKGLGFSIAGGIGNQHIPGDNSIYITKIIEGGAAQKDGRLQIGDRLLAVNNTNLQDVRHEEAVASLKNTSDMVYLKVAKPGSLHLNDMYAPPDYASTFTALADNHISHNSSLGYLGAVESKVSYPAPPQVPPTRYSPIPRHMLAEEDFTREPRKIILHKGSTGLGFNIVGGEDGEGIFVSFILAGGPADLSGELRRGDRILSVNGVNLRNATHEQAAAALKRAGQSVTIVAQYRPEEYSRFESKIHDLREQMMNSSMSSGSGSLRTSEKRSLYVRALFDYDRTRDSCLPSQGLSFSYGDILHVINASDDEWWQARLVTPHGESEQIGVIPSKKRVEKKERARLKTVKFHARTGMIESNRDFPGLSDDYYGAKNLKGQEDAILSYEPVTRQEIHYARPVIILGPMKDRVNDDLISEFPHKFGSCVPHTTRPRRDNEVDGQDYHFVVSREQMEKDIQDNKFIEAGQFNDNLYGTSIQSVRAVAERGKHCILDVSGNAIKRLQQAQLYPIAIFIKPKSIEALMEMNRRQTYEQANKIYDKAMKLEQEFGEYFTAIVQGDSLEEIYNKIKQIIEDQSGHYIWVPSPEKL
UniProt Q9UKB3: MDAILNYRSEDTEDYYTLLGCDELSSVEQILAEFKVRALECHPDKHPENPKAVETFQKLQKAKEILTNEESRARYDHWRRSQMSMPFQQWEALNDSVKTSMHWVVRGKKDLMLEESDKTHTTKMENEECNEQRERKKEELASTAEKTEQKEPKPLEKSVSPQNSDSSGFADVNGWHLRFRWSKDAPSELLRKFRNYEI

Tests used:
Experiment in all cases: log2 fold change, soluble protein after heating vs DMSO (PISA); higher = thermal stabilisation; K562 lysate, 10 uM; active = over 0.2 and 3.5 SD of the protein, either way, in both replicates (recomputed)
[1] = compound: C1=CC=C(C=C1)[C@H](COC2=CC3=C(C=C2)NC(=O)N3)NC(=O)C4=CC=CN(C4=O)CC5=CC(=C(C=C5)F)F
In short: (§1)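 Quantification was by TMTpro 16plex LC-MS/MS with equalised channel sums, applied to the supernatant after 21,000xg for 90 min. Samples were crude K562 extract at 1 mg/mL protein in PBS pH 7.4 with 1 mM MgCl2, treated with 10 μM compound for 30 min, heated for 3 min across 48°C-58°C, pooled and brought to 0.5% NP-40 at 4°C. Values are log-two fold changes in thermal stability relative to solvent controls, from duplicates.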

[2] = compound: CC1=C(SC2=C1C(=N[C@H](C3=NN=C(N32)C)CC(=O)N)C4=CC=C(C=C4)Cl)C
In short: as §1

[3] = compound: CC1=C2C(=CC=C1)N=C(N(C2=O)C3=CC=CC=C3C)CN4C=NC5=C(N=CN=C54)N
In short: as §1

[4] = compound: Cc1sc2c(c1C)C(c1ccc(Cl)cc1)=N[C@@H](CC(=O)OC(C)(C)C)c1nnc(C)n1-2
In short: as §1

[5] = compound: c1ccc([C@@H]2C[C@H]2NC2CCNCC2)cc1
In short: as §1

Measured: log2 fold change

DLC1 (UniProt Q96QB1)
inactive: [1] 0.013 | [2] 0.146

DOCK9 isoform 4 (UniProt Q9BZ29)
inactive: [1] 0.049 | [2] -0.028 | [3] 0.019 | [4] 0.029 | [5] -0.021

DIP2A (UniProt Q14689)
inactive: [1] -0.029 | [2] 0.006 | [3] 0.039 | [4] 0.021 | [5] -0.034

DIS3L (UniProt Q8TF46)
inactive: [1] -0.123 | [2] 0.096 | [3] 0.082 | [4] 0.033 | [5] 0.015

DNAH12 (UniProt Q6ZR08)
inactive: [1] 0.02 | [2] 0.121 | [3] -0.042 | [4] -0.018 | [5] -0.099

DNMT1 isoform 2 (UniProt P26358)
inactive: [1] 0.019 | [2] 0.001 | [3] -0.009 | [4] 0.023 | [5] 0.015

DNAJA3 isoform 2 (UniProt Q96EY1)
inactive: [1] -0.077 | [2] -0.055 | [3] 0.074 | [4] -0.047

DNAJC19 (UniProt Q96DA6)
inactive: [1] -0.033 | [2] 0.044 | [3] 0.04 | [4] -0.035 | [5] 0.016

DNHD1 (UniProt Q96M86)
inactive: [1] -0.056 | [2] 0.109 | [3] 0.105

DOHH (UniProt Q9BU89)
inactive: [1] 0.007 | [2] -0.02 | [3] 0.025 | [4] -0.068 | [5] 0.011

DGKH (UniProt Q86XP1)
inactive: [1] -0.307 | [2] -0.216 | [3] 0.107 | [4] -0.039 | [5] 0.019

DNAJC8 (UniProt O75937)
inactive: [1] -0.001 | [2] -0.007 | [3] -0.028 | [4] 0.01 | [5] 0.048

DNAJB12 (UniProt Q9NXW2)
inactive: [1] -0.086 | [2] -0.005 | [3] 0.017 | [4] -0.026 | [5] 0.058

DLGAP5 (UniProt Q15398)
inactive: [1] 0.029 | [2] -0.006 | [3] 0.009 | [4] -0.036 | [5] -0.015

DNAJC10 (UniProt Q8IXB1)
inactive: [1] 0.035 | [2] -0.013 | [3] -0.001 | [4] -0.035 | [5] -0.036

Reprinted at random: 2 records from the list.
DLGAP5 (UniProt Q15398)
inactive: [1] 0.029 | [2] -0.006 | [3] 0.009 | [4] -0.036 | [5] -0.015

DGKH (UniProt Q86XP1)
inactive: [1] -0.307 | [2] -0.216 | [3] 0.107 | [4] -0.039 | [5] 0.019

More results follow.

DLG5 (UniProt Q8TDM6)
inactive: [1] -0.1 | [2] 0.002 | [3] 0.247 | [4] -0.4

DIPK2A (UniProt Q8NDZ4)
inactive: [1] 0.052 | [2] -0.045 | [3] -0.052 | [4] 0.052 | [5] 0.036

DOCK7 (UniProt Q96N67)
inactive: [1] 0.071 | [2] 0.095 | [3] -0.017 | [4] -0.011 | [5] 0.012

DLG3 isoform 2 (UniProt Q92796)
inactive: [1] 0 | [2] -0.082 | [3] -0.085 | [4] 0.019 | [5] 0.048

DLG1 isoform 3 (UniProt Q12959)
inactive: [1] -0.054 | [2] -0.101

DNAH9 (UniProt Q9NYC9)
inactive: [1] -0.024 | [2] 0.027 | [3] -0.031 | [4] -0.02 | [5] -0.023

DHODH (UniProt Q02127)
inactive: [1] 0.037 | [2] -0.001 | [3] 0.007 | [4] 0.014 | [5] -0.017

DHX37 (UniProt Q8IY37)
inactive: [1] -0.15 | [2] 0.074 | [3] 0.028 | [4] 0.063 | [5] 0.136

DNAJC12 (UniProt Q9UKB3)
inactive: [1] 0.052 | [2] -0.047 | [3] -0.032 | [4] -0.029 | [5] -0.074

DNAJB2 (UniProt P25686)
inactive: [1] -0.17 | [2] 0.002 | [3] 0.041 | [4] -0.111 | [5] 0.044

DHX16 (UniProt O60231)
inactive: [1] 0.022 | [2] 0.02 | [3] 0.024 | [4] 0.013 | [5] 0.058
